Test results taken from PubChem BioAssay AID540276 (National Center for Advancing Translational Sciences (NCATS), 2011).
Out of some 300,000 compounds screened, about 5,400 (1.8%) were called active. The inconclusive results got no clear call from the source; some entries with a clear call stand among them for comparison. Calls follow the shape of the full dose curve; tested in HEK293 cells. Potencies beside an inconclusive call are fits to weak or partial responses and may not hold up.
% is scaled to controls: 0 for no effect and ±100 for the full control effect; potency is read from the fitted curve at half-maximal effect.

Assay: qHTS for inhibitors of binding or entry into cells for Marburg Virus
Conditions: Marburg virus pseudotyped entry inhibition, cell reporter; activity change, negative = inhibition: at 37.8 µM (top of the series) unless noted
For `C/C(=N\NC(=O)Cc1cccn1C)c1cccc2ccccc12`, the Potency was inconclusive: 39.8 µM [inhibitor, single point].
In the case of `Cc1cc(Cl)cc(Cl)c1OCCOc1cccc2cccnc12`, the “activity change, negative = inhibition” value was inactive: -19.1%.
In the case of `O=Cc1ccc(-c2cccs2)s1`, the Potency was inconclusive: 12.6 µM [inhibitor, partial curve].
With `COCc1c(C(=O)OCC(=O)N2c3ccccc3NC(=O)C2(C)C)oc2ccccc12` the Potency was inconclusive: 29.1 µM [inhibitor, single point].
For `CCn1c(SCC(=O)N(C)CC(=O)Nc2ccc(OC)cc2)nnc1-c1ccco1`, the “activity change, negative = inhibition” value was inactive: 11.8%.
In the case of `O=c1c(/C=C(\O)c2ccccc2)nc2ccccc2n1-c1ccccc1`, the Potency was inconclusive: 0.316 µM [activator, partial curve, poor fit].
In the case of `COc1ccc(OC)c(C2CC(=O)Nc3cc(OC)c(OC)c(OC)c32)c1` (stereo not given), the “activity change, negative = inhibition” value was inactive: -9.92%.
With `CCOC(=O)c1cc(C)sc1NC(=O)CN1CCN(C(=O)c2ccco2)CC1` the Potency was inconclusive: 35.5 µM [inhibitor, single point].
With `CCn1c(O)c(C=C2N=c3ccccc3=N2)sc1=S` the Potency was inconclusive: 2 µM [activator, single point].
With `Cc1sc2c(c1C)CN(Cc1ccncc1)CN2C(=O)c1ccco1` the “activity change, negative = inhibition” value was inactive: 6.31%.
With `COc1cc(/C=N/N=C(\N)c2nonc2N)ccc1O` the “activity change, negative = inhibition” value was inactive: -0.978%.
In the case of `Cc1ccc(NC(=S)N2CCCN(Cc3ccc(F)cc3)C2)c(C)c1`, the Potency was inconclusive: 7.94 µM [inhibitor, partial curve].
In the case of `CC(C)(C)OC(=O)CN1C(=O)NC2(CCCc3ccccc32)C1=O` (stereo not given), the Potency was inconclusive: 1.12 µM [activator, full curve, poor fit].
In the case of `COC(=O)[C@@]1(Cc2ccc(OC)cc2)[C@H]2c3cc(C(=O)N4CCCC4)n(CCO)c3C[C@H]2CN1C(=O)c1ccccc1`, the “activity change, negative = inhibition” value was inactive: 2.76%.
In the case of `CCC(c1ccc(O)c(O)c1)C(CC)c1ccc(O)c(O)c1` (stereo not given), the Potency was inconclusive: 17.8 µM [inhibitor, partial curve, poor fit].
For `CC(C)c1ccc(C2C3=C(COC3=O)Nc3cc4c(cc32)OCO4)cc1` (stereo not given), the Potency was inconclusive: 3.16 µM [inhibitor, partial curve, poor fit].
In the case of `COc1ccc(C(=O)c2cn(CC(=O)Nc3ccc4c(c3)OCO4)c3ccc(OC)cc3c2=O)cc1`, the “activity change, negative = inhibition” value was inactive: -29.4% [at 46.1 µM].
In the case of `COc1ccc(CNC(=O)CCCn2c(SCC#N)nc3cc4c(cc3c2=O)OCO4)cc1`, the Potency was inconclusive: 16.4 µM [inhibitor, single point].
In the case of `c1ccc(C(=NNc2nc3ccccc3s2)c2ccccn2)cc1`, the Potency was inconclusive: 11.2 µM [inhibitor, partial curve, poor fit].
For `COc1ccc(C(=O)Nc2ccc3[nH]ncc3c2)cc1OC`, the “activity change, negative = inhibition” value was inactive: 6.27%.
For `C[C@@H]1C=CCC(=O)N[C@@H](c2cccc(Br)c2)[C@H](C)C=CCC(=O)N[C@@H]1c1cccc(Br)c1`, the Potency was inconclusive: 0.75 µM [inhibitor, partial curve].
For `COCCn1c(C)cc(C(=O)Cn2nc(C(=O)O)c3ccccc3c2=O)c1C`, the Potency was inconclusive: 4.61 µM [activator, single point].
In the case of `COC(=O)c1ccccc1NC(=O)Cn1cnc2c1c(=O)n(C)c(=O)n2C`, the “activity change, negative = inhibition” value was inactive: -5.98% [at 46.1 µM].
With `O=C(CN(C(=O)CNC(=O)c1ccco1)c1ccc(Cl)c(Cl)c1)NC1CCCCC1` the Potency was inconclusive: 11.2 µM [inhibitor, partial curve].
In the case of `N#CCOc1ccc(C2=NO[C@@H]3[C@@H]4C[C@@H]([C@H]5C(=O)N(c6ccc7c(c6)OCO7)C(=O)[C@@H]45)[C@H]23)cc1`, the Potency was inconclusive: 3.16 µM [activator, single point].
For `CCN(CC)c1ccc(NC(=O)c2ccc(=O)[nH]c2)cc1S(=O)(=O)Nc1ccccc1OC`, the Potency was inconclusive: 7.94 µM [inhibitor, partial curve].
For `COCCNc1oc(COc2cccc(C)c2)nc1C#N`, the Potency was inconclusive: 11.2 µM [activator, partial curve].
With `Clc1cccc(N=C2NN=C(c3ccc4c(c3)OCCO4)CS2)c1` the Potency was inconclusive: 29.1 µM [inhibitor, single point].
With `O=C(CN1C(=O)NC(c2ccccc2)(c2ccccc2)C1=O)N1CCCCC1` the Potency was inconclusive: 8.91 µM [activator, single point].
For `CN(CC[C@@H](Oc1ccc(C(F)(F)F)cc1)c1ccccc1)CC(=O)O`, the Potency was inconclusive: 14.6 µM [activator, single point].
For `O=C(N/N=C/c1ccc(O)cc1)Nc1cccc2nsnc12`, the Potency was inconclusive: 1.78 µM [inhibitor, partial curve, poor fit].
In the case of `CCN(CC(=O)Nc1cc(Cl)ccc1C)C(=O)CCS(=O)(=O)c1ccc(Cl)cc1`, the Potency was inconclusive: 35.5 µM [inhibitor, single point].
With `COC(=O)C1CCN(C(=O)COC(=O)C2CCN(S(=O)(=O)c3c(Cl)cccc3Cl)CC2)CC1` the Potency was inconclusive: 3.55 µM [inhibitor, single point].
In the case of `COC(=O)C1=C[C@H]([C@@H](C)[C@H](OC)c2ccccc2Br)[C@H]2c3ccccc3O[C@@H]12`, the Potency was inconclusive: 1.19 µM [inhibitor, partial curve, poor fit].
For `O=C(NCc1cccs1)C1CC1`, the “activity change, negative = inhibition” value was inactive: 23% [at 46.1 µM].
With `O=S1(=O)CCN(Cc2ccc(F)cc2)CC1` the “activity change, negative = inhibition” value was inactive: 16.1% [at 46.1 µM].
For `O=C(CCl)N=c1sccn1Cc1ccccc1Cl`, the Potency was inconclusive: 29.1 µM [inhibitor, single point].
With `C=CC[n+]1c(-c2ccc(OC)c(OC)c2)csc1NNC(=O)Nc1ccccc1` the Potency was inconclusive: 13 µM [inhibitor, partial curve, poor fit].
With `O=C(NNC(=O)C(O)c1ccccc1)NC1CCCCC1` (stereo not given) the “activity change, negative = inhibition” value was inactive: 15.9% [at 46.1 µM].
For `COc1cccc(CN2CCC(C(=O)N3CCN(Cc4ccc5c(c4)OCO5)CC3)CC2)c1`, the Potency was inconclusive: 15.8 µM [inhibitor, single point].
For `Cc1cc(C)c2sc(N(CCN(C)C)C(=O)CCS(=O)(=O)c3ccccc3)nc2c1`, the Potency was inconclusive: 3.16 µM [activator, single point].
With `COc1ccc(Cc2nc(C(=O)Nc3ccc(F)cc3)cs2)cc1` the “activity change, negative = inhibition” value was inactive: -23.9% [at 46.1 µM].
With `CCS(=O)(=O)c1ncc(N(Cc2cccc(F)c2)Cc2ccco2)c(C(=O)Nc2ccccc2Cl)n1` the “activity change, negative = inhibition” value was inactive: -19.2% [at 46.1 µM].
In the case of `O=C(O)c1ccc(CNCc2cccc(Cl)c2Cl)cc1`, the Potency was inconclusive: 1.12 µM [activator, partial curve, poor fit].
For `Cc1nc2c(-c3ccccc3)c(C)[nH]n2c(=O)c1Cc1ccc(C(C)C)cc1`, the Potency was inconclusive: 1.41 µM [inhibitor, partial curve, poor fit].
In the case of `Cc1ccc(C)c(Oc2coc3cc(OC(=O)c4cccs4)ccc3c2=O)c1`, the “activity change, negative = inhibition” value was inactive: 5.08%.
For `O=C(c1ccc(F)cc1)N1CCN(c2cc(N3CCCCC3)c(F)cc2[N+](=O)[O-])CC1`, the Potency was inconclusive: 16.4 µM [inhibitor, partial curve, poor fit].
In the case of `CCOc1ccc(CCNC(=O)C2CCN(c3nnc(-n4cccc4)s3)CC2)cc1OCC`, the Potency was inconclusive: 10 µM [inhibitor, partial curve, poor fit].
In the case of `CC(NC(=O)c1ccc([N+](=O)[O-])o1)C12CC3CC(CC(C3)C1)C2` (stereo not given), the “activity change, negative = inhibition” value was inactive: -17% [at 46.1 µM].
In the case of `CCOC(=O)c1cnn(-c2ccccn2)c1N`, the Potency was inconclusive: 1 µM [activator, partial curve, poor fit].
With `CCOc1cc(/C=C\c2[nH]c(=O)[nH]c(=O)c2[N+](=O)[O-])ccc1OC(C)CC` (stereo not given) the “activity change, negative = inhibition” value was inactive: -28.2%.
In the case of `COc1ccc(NC(=O)CN2C(=O)CC(c3ccco3)Sc3ccccc32)cc1OC` (stereo not given), the “activity change, negative = inhibition” value was inactive: 8.53% [at 46.1 µM].
For `Cc1noc(C)c1CSc1nc2ccccc2c(=O)n1-c1ccc(Cl)cc1`, the Potency was inconclusive: 13 µM [inhibitor, partial curve, poor fit].
For `O=C(CN(Cc1ccco1)C(=O)c1ccccc1)Nc1ccc(Cl)c(Cl)c1`, the Potency was inconclusive: 18.3 µM [inhibitor, single point].
With `Clc1ccc(OCCSc2ncccn2)cc1` the Potency was inconclusive: 0.461 µM [activator, full curve, poor fit].
For `COc1ccc2ccc(Oc3ncccn3)cc2c1`, the Potency was inconclusive: 7.08 µM [activator, partial curve, poor fit].
In the case of `COc1cc2c(C(=O)OCCN(C)C)c(CSc3ccccc3)n(C)c2cc1Br`, the Potency was inconclusive: 7.94 µM [inhibitor, partial curve, poor fit].
In the case of `CCOC(=O)c1c(C)[nH]c(C=O)c1Cc1cccc(Cl)c1`, the Potency was inconclusive: 14.1 µM [inhibitor, single point].
For `CC1COCC(C)N1C1=C(Cl)C(=O)c2ccccc2C1=O` (stereo not given), the Potency was inconclusive: 35.5 µM [inhibitor, partial curve, poor fit].
With `CCOC(=O)c1cc(-c2ccc(/C=C3/C(=O)N(c4ccc(C(=O)O)cc4)N=C3C)o2)ccc1Cl` the “activity change, negative = inhibition” value was inactive: 18% [at 46.1 µM].
In the case of `CC(=O)N(c1ccc(Cl)cc1)c1cn(C(C)=O)c2ccccc12`, the Potency was inconclusive: 6.31 µM [inhibitor, single point].
In the case of `Cc1ccc(Cn2c(N)c(S(=O)(=O)c3cccs3)c3nc4ccccc4nc32)cc1`, the Potency was inconclusive: 18.3 µM [inhibitor, single point].
In the case of `COc1ccc(C(=O)N/C(N)=N/c2nc3ccccc3o2)cc1`, the Potency was “inactive”.
In the case of `O=C(COc1ccc(S(=O)(=O)N2CCOCC2)cc1)Nc1ccc(Cl)c(C(F)(F)F)c1`, the Potency was inconclusive: 16.4 µM [inhibitor, partial curve, poor fit].
With `O=C(CCn1c(=O)[nH]c2ccsc2c1=O)N1CCN(c2ccc([N+](=O)[O-])cc2)CC1` the Potency was inconclusive: 35.5 µM [inhibitor, single point].
